PubChem BioAssay AID743121, NCATS | 2013
Shown is an unselected part of about 26,000 reagents. In the full data, 167 (0.63%) got an active call. 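Calls are per gene from RSA p-values that are not deposited; an individual active-marked siRNA can sensitise only weakly.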 Unmarked entries are inactive. The numbers tell different reagents against one gene apart. Further read-outs or replicates are left out here.

Aim: 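Partners whose loss is lethal together with topoisomerase I blockade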 (primary screen)
System: MDA-MB-231 cells, a human breast cancer line
Knock-down reagent: single siRNA against human genes, 20 nM siRNA (0.8 pmol per well)
Timing: 120 h (drug added 48 h after transfection, read 72 h later)
Treatment: camptothecin 20 nM (about EC30) for 72 h; vehicle 0.1% DMSO in parallel plates
Measurement: 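CellTiter-Glo ATP signal, scaled to control siRNA as percent viability; sensitisation given as log2 of untreated divided by camptothecin-treated viability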
Direction: log2 vehicle/camptothecin viability: higher = stronger sensitisation to camptothecin; viability with camptothecin: higher = more viable cells
Call rule: 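Each gene scored by redundant siRNA activity (RSA) over its individual siRNA ratios; a gene is called active at p < 0.001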

The opening 5 records, to show the layout:
| gene | siRNA no. | log2 vehicle/camptothecin viability | viability with camptothecin (% of control) |
| --- | --- | --- | --- |
| RNF133 | 1 | -0.0807 | 86.9 |
| RNF133 | 2 | -0.0567 | 83.1 |
| RNF133 | 3 | -0.198 | 53.3 |
| RNF133 | 4 | -0.673 | 99 |
| PRKD2 | 1 | 0.0194 | 71.7 |

Results, repeating the preview:
| gene | siRNA no. | log2 vehicle/camptothecin viability | viability with camptothecin (% of control) |
| --- | --- | --- | --- |
| RNF133 | 1 | -0.0807 | 86.9 |
| RNF133 | 2 | -0.0567 | 83.1 |
| RNF133 | 3 | -0.198 | 53.3 |
| RNF133 | 4 | -0.673 | 99 |
| PRKD2 | 1 | 0.0194 | 71.7 |
| PRKD2 | 2 | 0.394 | 62.4 |
| PRKD2 | 3 | -0.377 | 21 |
| PRKD2 | 4 | -0.624 | 85.7 |
| PVR | 1 | -0.383 | 92.4 |
| PVR | 2 | 0.79 | 34.4 |
| PVR | 3 | -0.0392 | 92.7 |
| PVR | 4 | -0.322 | 44.9 |
| BAZ2A | 1 | -0.123 | 84.1 |
| BAZ2A | 2 | 0.482 | 35.8 |
| BAZ2A | 3 | 0.341 | 42 |
| BAZ2A | 4 | -0.253 | 78.5 |
| GALK2 | 1 | -0.451 | 73.1 |
| GALK2 | 2 | 0.795 | 51.6 |
| GALK2 | 3 | -0.317 | 71.8 |
| GALK2 | 4 | -0.0488 | 75.8 |
| IFNA1 | 1 | -0.079 | 90.1 |
| IFNA1 | 2 | 0.132 | 76.6 |
| IFNA1 | 3 | -0.0856 | 96 |
| IFNA1 | 4 | -0.275 | 109 |
| IFNA1 | 5 | -0.166 | 77.4 |
| IFNA1 | 6 | -0.199 | 88.1 |
| CARD6 | 1 | 0.808 | 36 |
| CARD6 | 2 | 0.0552 | 59.6 |
| CARD6 | 3 | -0.38 | 40.4 |
| CARD6 | 4 | 0.246 | 59.7 |
| DKK2 | 1 | -0.167 | 101 |
| DKK2 | 2 | 0.0771 | 68 |
| DKK2 | 3 | 0.0608 | 102 |
| DKK2 | 4 | 0.469 | 62.7 |
| TRIB3 | 1 | 0.599 | 46.6 |
| TRIB3 | 2 | 0.178 | 94.5 |
| TRIB3 | 3 | -0.681 | 32.2 |
| TRIB3 | 4 | -0.309 | 15.4 |
| TRIB3 | 5 | -0.000336 | 103 |
| CA14 | 1 | -0.104 | 54.5 |
| CA14 | 2 | -0.416 | 72.4 |
| CA14 | 3 | -0.0742 | 93.4 |
| CA14 | 4 | -0.751 | 41 |
| LRP4 | 1 | 0.0419 | 87.7 |
| LRP4 | 2 | -0.449 | 61 |
| LRP4 | 3 | -0.193 | 80.6 |
| LRP4 | 4 | -0.383 | 52.7 |
| UTS2B | 1 | -0.144 | 97.6 |
| UTS2B | 2 | -0.211 | 56.9 |
| UTS2B | 3 | -0.0973 | 46.5 |
| UTS2B | 4 | -0.0552 | 102 |
| GIP | 1 | -0.189 | 93.4 |
| GIP | 2 | -0.369 | 30.4 |
| GIP | 3 | 0.141 | 56.1 |
| GIP | 4 | -0.161 | 88.6 |
| B2M | 1 | -0.619 | 60.9 |
| B2M | 2 | -0.00284 | 23.9 |
| B2M | 3 | -0.533 | 77.8 |
| B2M | 4 | -0.397 | 107 |
| ARRB1 | 1 | 0.0319 | 86 |
| ARRB1 | 2 | -0.687 | 101 |
| ARRB1 | 3 | 0.782 | 36.9 |
| ARRB1 | 4 | 0.0657 | 75.8 |
| CYP2F1 | 1 | -0.254 | 64.1 |
| CYP2F1 | 2 | -0.382 | 65.8 |
| CYP2F1 | 3 | -0.128 | 8.84 |
| CYP2F1 | 4 | -0.412 | 76.6 |
| CFB | 1 | -0.0731 | 96.8 |
| CFB | 2 | 0.362 | 27.5 |
| CFB | 3 | -0.21 | 102 |
| CFB | 4 | 0.038 | 56.1 |
